Experimental findings from PMC6135765 are described below.

Assay [1] concerns the target His8-MBP:AtHb2 (Arabidopsis thaliana class 2 non-symbiotic hemoglobin / phytoglobin, before tag cleavage) (Arabidopsis thaliana) (UniProt O24521). Description: SEC; analytical size exclusion chromatography of the purified proteins, before and after His8-MBP removal; apparent native size in solution; both purified. (In general: In gel filtration, larger molecules generally elute earlier.)

The target in assay [2] is AtHb2 (Arabidopsis thaliana class 2 non-symbiotic hemoglobin / phytoglobin, His8-MBP removed) (Arabidopsis thaliana) (UniProt O24521). The assay is described as above.

Results are given in words; binding and its absence hold for the method and conditions named. Where a sequence is shown, tags or fusion partners need not be part of it.

B1: His8-MBP:AtHb2 (Arabidopsis thaliana class 2 non-symbiotic hemoglobin / phytoglobin, before tag cleavage) (protein, UniProt O24521 1-158)
chain: MGEIGFTEKQEALVKESWEILKQDIPKYSLHFFSQILEIAPAAKGLFSFLRDSDEVPHNNPKLKAHAVKVFKMTCETAIQLREEGKVVVADTTLQYLGSIHLKSGVIDPHFEVVKEALLRTLKEGLGEKYNEEVEGAWSQAYDHLALAIKTEMKQEES
For B1, the binding entry in assay [1] was “no binding”.

B2: AtHb2 (Arabidopsis thaliana class 2 non-symbiotic hemoglobin / phytoglobin, His8-MBP removed) (protein, UniProt O24521 1-158)
chain: MGEIGFTEKQEALVKESWEILKQDIPKYSLHFFSQILEIAPAAKGLFSFLRDSDEVPHNNPKLKAHAVKVFKMTCETAIQLREEGKVVVADTTLQYLGSIHLKSGVIDPHFEVVKEALLRTLKEGLGEKYNEEVEGAWSQAYDHLALAIKTEMKQEES
For B2, the binding result in assay [2] was “no binding”.
